Our source for the log2 fold change values is the supplement of paper PMC12819154, “High-throughput peptide-centric local stability assay extends protein–ligand identification to membrane proteins, tissues and bacteria” (Nature Structural & Molecular Biology, 2025).

Protein sequences, listed by entry. Tags and fused reporters are not part of them. Lines headed by an entry give the natural chain unless they say otherwise; changes in a name come on top.
UniProt Q9NYS0: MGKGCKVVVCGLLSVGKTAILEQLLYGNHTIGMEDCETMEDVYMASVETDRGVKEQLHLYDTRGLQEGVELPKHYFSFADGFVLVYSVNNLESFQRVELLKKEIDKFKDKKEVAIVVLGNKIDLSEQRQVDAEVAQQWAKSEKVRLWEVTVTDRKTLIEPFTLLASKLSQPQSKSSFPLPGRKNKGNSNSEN
UniProt Q9NR56: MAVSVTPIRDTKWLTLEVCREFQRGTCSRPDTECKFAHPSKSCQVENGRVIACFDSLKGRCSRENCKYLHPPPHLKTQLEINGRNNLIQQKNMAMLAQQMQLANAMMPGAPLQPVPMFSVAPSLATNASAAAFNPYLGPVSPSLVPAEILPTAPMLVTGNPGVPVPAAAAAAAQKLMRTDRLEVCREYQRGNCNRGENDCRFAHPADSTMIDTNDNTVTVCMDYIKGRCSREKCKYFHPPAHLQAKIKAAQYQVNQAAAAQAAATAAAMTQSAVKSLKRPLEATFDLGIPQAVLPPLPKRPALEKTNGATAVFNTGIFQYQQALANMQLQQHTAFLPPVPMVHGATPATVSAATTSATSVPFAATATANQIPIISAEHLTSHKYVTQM
UniProt Q9NUQ3: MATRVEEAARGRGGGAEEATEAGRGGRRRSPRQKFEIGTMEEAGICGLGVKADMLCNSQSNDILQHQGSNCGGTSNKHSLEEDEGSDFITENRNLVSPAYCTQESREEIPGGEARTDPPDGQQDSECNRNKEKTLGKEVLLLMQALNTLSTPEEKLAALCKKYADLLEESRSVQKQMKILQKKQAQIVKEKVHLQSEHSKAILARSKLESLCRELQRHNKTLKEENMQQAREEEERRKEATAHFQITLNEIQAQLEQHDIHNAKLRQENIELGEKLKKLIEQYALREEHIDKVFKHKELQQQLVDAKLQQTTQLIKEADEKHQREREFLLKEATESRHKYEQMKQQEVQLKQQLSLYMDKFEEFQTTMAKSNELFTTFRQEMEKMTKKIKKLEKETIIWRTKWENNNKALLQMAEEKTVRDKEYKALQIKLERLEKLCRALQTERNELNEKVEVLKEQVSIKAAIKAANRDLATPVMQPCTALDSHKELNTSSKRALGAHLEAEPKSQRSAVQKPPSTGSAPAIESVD
UniProt Q9NVV4: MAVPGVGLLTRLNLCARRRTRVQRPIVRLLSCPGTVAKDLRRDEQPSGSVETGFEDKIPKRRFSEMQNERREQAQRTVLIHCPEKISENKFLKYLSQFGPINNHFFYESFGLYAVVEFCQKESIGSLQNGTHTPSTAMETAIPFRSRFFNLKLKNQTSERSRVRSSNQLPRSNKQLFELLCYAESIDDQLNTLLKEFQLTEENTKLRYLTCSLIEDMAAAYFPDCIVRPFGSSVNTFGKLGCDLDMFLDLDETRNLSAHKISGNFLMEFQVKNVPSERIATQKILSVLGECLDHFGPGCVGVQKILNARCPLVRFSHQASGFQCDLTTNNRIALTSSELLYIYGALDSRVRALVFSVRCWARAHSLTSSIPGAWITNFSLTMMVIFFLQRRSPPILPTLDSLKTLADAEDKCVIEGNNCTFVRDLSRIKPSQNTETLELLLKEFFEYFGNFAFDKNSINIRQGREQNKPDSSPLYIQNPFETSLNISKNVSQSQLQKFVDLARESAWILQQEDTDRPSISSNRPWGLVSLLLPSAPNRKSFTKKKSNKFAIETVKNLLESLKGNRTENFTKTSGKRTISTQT
UniProt Q9NXF1: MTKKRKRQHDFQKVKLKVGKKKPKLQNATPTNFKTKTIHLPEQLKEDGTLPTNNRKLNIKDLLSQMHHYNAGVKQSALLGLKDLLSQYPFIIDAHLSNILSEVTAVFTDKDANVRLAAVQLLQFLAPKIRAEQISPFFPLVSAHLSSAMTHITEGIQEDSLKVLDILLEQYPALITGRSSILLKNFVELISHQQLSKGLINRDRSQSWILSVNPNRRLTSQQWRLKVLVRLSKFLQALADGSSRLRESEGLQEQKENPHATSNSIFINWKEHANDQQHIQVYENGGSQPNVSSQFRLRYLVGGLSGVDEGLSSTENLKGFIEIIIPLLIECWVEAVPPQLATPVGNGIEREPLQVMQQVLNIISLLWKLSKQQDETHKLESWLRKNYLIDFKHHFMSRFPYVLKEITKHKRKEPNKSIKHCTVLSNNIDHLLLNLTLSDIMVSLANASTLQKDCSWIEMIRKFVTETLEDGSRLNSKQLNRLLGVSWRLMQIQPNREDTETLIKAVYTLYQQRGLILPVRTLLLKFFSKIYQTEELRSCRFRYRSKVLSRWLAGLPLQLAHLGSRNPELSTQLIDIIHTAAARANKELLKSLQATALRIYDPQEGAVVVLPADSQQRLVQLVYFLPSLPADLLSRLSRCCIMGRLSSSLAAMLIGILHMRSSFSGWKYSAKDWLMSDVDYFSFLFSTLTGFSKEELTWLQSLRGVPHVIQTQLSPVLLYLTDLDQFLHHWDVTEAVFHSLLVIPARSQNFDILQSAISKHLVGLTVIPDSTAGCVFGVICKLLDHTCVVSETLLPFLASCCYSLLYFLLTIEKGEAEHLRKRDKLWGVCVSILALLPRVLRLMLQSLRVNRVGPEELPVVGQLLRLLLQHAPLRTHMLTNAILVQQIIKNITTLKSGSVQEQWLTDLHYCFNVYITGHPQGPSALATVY
UniProt Q9NRR5, whole entry: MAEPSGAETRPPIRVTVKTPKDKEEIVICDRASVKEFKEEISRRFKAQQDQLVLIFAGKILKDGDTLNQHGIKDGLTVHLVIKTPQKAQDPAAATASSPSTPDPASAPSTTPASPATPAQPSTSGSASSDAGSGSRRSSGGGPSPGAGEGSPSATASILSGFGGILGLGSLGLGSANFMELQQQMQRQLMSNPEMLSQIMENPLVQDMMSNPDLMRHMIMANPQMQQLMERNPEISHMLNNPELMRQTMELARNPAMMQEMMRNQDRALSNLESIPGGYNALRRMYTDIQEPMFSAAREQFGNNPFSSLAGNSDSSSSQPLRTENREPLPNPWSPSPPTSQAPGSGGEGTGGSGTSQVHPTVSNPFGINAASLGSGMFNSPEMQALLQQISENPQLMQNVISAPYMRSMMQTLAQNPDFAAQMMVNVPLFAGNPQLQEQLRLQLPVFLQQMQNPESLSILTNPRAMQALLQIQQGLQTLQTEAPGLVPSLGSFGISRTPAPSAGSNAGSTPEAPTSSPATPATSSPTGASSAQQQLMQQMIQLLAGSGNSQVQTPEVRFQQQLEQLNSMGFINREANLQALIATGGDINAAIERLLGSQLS
UniProt Q9NS18: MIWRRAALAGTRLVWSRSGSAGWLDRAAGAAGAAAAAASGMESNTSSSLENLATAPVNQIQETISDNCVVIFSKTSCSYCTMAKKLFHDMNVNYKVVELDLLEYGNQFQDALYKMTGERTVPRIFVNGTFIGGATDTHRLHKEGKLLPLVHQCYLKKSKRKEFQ
UniProt Q9NQW6: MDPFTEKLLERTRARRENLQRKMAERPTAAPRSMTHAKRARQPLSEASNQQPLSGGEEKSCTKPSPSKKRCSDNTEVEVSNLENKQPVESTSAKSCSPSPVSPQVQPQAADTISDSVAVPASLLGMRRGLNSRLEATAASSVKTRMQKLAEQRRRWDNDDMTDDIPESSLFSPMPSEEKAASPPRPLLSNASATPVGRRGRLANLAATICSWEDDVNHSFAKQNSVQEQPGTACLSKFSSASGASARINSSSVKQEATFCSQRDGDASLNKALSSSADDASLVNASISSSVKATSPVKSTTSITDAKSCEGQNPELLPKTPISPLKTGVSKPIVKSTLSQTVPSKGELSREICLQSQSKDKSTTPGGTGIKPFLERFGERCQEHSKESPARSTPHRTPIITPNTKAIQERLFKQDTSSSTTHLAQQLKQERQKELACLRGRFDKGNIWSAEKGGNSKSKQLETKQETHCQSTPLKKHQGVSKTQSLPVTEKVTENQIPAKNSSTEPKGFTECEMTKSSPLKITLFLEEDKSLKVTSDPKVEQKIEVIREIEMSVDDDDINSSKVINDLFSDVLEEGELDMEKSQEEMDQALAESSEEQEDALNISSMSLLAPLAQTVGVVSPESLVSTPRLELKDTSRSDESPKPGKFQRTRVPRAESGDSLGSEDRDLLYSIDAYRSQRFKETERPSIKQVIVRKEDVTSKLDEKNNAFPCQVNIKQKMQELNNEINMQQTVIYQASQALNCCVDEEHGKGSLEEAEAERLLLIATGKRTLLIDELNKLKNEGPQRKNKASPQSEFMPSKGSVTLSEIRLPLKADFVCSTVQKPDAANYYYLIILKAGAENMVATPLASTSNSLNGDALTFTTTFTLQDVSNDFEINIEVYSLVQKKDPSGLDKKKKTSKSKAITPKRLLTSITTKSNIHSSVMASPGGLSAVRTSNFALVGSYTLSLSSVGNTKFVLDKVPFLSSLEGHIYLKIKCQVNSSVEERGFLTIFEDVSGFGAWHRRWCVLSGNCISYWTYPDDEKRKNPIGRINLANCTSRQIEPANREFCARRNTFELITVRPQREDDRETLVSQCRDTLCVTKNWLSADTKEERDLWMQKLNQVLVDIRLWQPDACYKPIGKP
UniProt Q9NRA8: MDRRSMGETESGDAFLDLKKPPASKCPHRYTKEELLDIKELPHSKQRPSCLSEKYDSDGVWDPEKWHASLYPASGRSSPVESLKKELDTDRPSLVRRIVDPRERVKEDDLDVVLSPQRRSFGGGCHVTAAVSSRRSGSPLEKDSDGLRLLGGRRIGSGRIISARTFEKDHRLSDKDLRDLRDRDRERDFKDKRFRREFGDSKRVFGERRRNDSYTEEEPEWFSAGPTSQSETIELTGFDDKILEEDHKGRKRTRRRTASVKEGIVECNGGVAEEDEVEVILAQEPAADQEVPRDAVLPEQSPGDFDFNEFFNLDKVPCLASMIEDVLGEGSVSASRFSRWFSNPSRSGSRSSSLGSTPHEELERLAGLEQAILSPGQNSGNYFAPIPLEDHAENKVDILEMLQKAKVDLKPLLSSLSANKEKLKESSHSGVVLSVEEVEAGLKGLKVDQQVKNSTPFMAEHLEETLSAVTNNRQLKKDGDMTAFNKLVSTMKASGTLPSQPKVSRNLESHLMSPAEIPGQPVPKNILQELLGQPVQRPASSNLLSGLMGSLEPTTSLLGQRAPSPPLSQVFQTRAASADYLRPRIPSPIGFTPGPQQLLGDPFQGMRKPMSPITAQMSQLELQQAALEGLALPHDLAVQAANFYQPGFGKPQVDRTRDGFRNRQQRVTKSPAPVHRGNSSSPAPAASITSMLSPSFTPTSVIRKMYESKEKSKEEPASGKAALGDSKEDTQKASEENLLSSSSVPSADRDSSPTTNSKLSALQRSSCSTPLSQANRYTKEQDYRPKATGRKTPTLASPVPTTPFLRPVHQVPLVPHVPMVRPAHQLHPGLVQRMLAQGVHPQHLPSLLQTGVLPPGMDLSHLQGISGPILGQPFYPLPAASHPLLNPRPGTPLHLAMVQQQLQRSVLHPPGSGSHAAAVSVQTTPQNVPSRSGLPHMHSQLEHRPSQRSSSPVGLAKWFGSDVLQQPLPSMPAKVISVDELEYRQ
UniProt Q9NVC6: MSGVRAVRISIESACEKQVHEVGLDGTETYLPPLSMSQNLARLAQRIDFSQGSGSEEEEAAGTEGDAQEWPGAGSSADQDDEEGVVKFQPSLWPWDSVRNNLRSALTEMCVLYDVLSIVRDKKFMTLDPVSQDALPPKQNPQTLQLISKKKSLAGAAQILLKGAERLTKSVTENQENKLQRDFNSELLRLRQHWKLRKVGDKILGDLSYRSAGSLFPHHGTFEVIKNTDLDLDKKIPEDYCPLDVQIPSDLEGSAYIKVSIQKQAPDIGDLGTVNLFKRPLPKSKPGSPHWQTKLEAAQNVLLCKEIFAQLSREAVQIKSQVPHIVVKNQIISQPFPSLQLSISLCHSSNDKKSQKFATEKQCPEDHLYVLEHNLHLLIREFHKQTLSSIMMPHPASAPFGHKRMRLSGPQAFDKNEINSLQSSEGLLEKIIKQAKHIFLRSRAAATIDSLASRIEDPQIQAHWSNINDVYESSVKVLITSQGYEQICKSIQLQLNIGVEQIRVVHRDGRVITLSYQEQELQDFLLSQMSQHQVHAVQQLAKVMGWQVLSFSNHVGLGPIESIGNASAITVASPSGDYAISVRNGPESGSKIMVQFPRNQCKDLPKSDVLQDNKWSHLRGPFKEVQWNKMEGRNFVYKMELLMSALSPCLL
UniProt Q9NS37: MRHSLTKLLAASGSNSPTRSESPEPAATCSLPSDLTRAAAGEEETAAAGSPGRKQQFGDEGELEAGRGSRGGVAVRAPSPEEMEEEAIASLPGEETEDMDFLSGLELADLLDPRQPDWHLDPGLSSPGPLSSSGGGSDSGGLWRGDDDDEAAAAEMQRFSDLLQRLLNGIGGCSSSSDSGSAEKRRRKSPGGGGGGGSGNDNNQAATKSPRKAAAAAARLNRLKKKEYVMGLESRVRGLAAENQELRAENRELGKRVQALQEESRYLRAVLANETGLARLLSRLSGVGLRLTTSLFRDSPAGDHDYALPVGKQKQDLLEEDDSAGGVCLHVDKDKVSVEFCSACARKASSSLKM
UniProt Q9NU23: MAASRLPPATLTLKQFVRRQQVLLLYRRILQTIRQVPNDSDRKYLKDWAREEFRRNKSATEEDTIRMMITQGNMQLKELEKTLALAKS

The other results are listed elsewhere or left out. Small differences around the control level are noise.

Compound in the assay: CN[C@@H]1C[C@H]2O[C@@](C)([C@@H]1OC)n1c3ccccc3c3c4c(c5c6ccccc6n2c5c31)C(=O)NC4 [staurosporine]
The assay can be described thus: log2 fold change of tryptic peptide abundance, ligand vs vehicle (limited proteolysis) (log2 ratio); higher = more trypsin-susceptible (destabilized). Conditions: ligand concentration: 20 uM; sample: K562 cleared lysate; digestion: 4 min, 22 C (HT-PELSA RT4min, Orbitrap Astral).
Turning to “NKIRAS1 (peptide sequence: VVVCGLLSVGK, peptide start residue: 7) (UniProt Q9NYS0)”, the log2 fold change is -0.536. The result for “MBNL1 (peptide sequence: CSRENCKYLHPPPHLK, peptide start residue: 61) (UniProt Q9NR56)” reads 0.459. In the case of “SDHAF2 (peptide sequence: TDESIETKR, peptide start residue: 59) (UniProt Q9NX18)”, the log2 fold change was -0.65. The figure for “DDX56 (peptide sequence: GLVLVPTKELAR, peptide start residue: 85) (UniProt Q9NY93)” is 0.321; for “ING3 (peptide sequence: YNPTSHHTTTDHIPEKK, peptide start residue: 149) (UniProt Q9NXR8)” it is -0.405. Turning to “UniProt Q9NUQ3 (peptide sequence: QENIELGEKLKK, peptide start residue: 267)”, the log2 fold change turned out to be 1.23.

“UniProt Q9NRW1 (peptide sequence: GSDVIIMLVGNKTDLADKR, peptide start residue: 116)”: the log2 fold change amounted to 0.211.

Take “USP40 (peptide sequence: APETSLSIHVGSFR, peptide start residue: 1222) (UniProt Q9NVE5)”: the log2 fold change is -0.24. The result for “MTPAP (peptide sequence: TVLIHCPEKISENK, peptide start residue: 77) (UniProt Q9NVV4)” reads 0.339. The result for “DDX4 (peptide sequence: YLVLDEADR, peptide start residue: 343) (UniProt Q9NQI0)” reads -0.0363; that for “TEX10 (peptide sequence: LTSQQWR, peptide start residue: 218) (UniProt Q9NXF1)”, 0.45.

On to “UBQLN4 (peptide sequence: QTMELAR, peptide start residue: 247) (UniProt Q9NRR5)”, for which the log2 fold change is -0.375. With “GLRX2 (peptide sequence: IFVNGTFIGGATDTHR, peptide start residue: 124) (UniProt Q9NS18)”, the log2 fold change is -0.226. The result for “PDRG1 (peptide sequence: YLVEVEELAEEVLADKR, peptide start residue: 12) (UniProt Q9NUG6)” reads 0.485. The figure for “UniProt Q9NVA1 (peptide sequence: VMGVNPYILKK, peptide start residue: 189)” is -0.787; for “KLHL11 (peptide sequence: RVPSSQIEC, peptide start residue: 700) (UniProt Q9NVR0)” it is 0.301; for “SPATS2L (peptide sequence: RFNPQYHNNR, peptide start residue: 436) (UniProt Q9NUQ6)” it is 0.301. The result for “MDN1 (peptide sequence: ASHPIVQK, peptide start residue: 1001) (UniProt Q9NU22)” reads 0.329; that for “ANLN (peptide sequence: TGVSKPIVK, peptide start residue: 327) (UniProt Q9NQW6)”, 0.304.

For the target “POLE4 (peptide sequence: ADPDVTLAGQEAIFILAR, peptide start residue: 52) (UniProt Q9NR33)”, the log2 fold change is -0.237.

“EIF4ENIF1 (peptide sequence: VKEDDLDVVLSPQRR, peptide start residue: 105) (UniProt Q9NRA8)”: the log2 fold change turned out to be 0.676.

Take “MED17 (peptide sequence: SLAGAAQILLK, peptide start residue: 152) (UniProt Q9NVC6)”: the log2 fold change was 0.0821.

Turning to “PANK4 (peptide sequence: NIPHEAFVYQK, peptide start residue: 161) (UniProt Q9NVE7)”, the log2 fold change was 0.599.

Turning to “UniProt Q9NS37 (peptide sequence: AVLANETGLAR, peptide start residue: 269)”, the log2 fold change is -0.348. As for “PDS5B (peptide sequence: ISKPDMSR, peptide start residue: 870) (UniProt Q9NTI5)”, the log2 fold change was determined as 0.538. The figure for “C1orf109 (peptide sequence: FEDVPALR, peptide start residue: 57) (UniProt Q9NX04)” is 0.0799; for “LYRM2 (peptide sequence: SATEEDTIR, peptide start residue: 58) (UniProt Q9NU23)” it is 0.546.
